Assay results reported in the supplement of paper PMC11732987, “Enantioselective OTUD7B fragment discovery through chemoproteomics screening and high-throughput optimisation” (Communications Chemistry, 2025).
The list shows a part of the results. The data scatter; read single values as rough.

Sequences of proteins named here, by UniProt entry; tags and fusion partners are left off.
UniProt P54709, whole entry, looked up: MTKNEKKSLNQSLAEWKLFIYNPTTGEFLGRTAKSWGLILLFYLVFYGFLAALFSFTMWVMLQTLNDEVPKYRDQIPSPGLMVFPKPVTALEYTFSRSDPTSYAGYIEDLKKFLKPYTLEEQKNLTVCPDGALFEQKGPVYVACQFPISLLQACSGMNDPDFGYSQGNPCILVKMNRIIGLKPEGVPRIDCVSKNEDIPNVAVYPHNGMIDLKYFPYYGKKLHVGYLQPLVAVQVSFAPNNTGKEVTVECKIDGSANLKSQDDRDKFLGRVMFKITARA

Legend:
Assay in all cases: log2 mean competition ratio of IA-DTB cysteine labelling (DMSO/compound) (log2 ratio); higher = stronger cysteine engagement by compound
Details in all cases: treatment time: 4 h, cell line lysate: HEK293T
[1] = molecular target: ATP1A1 C428 (UniProt P05023)
Protocol: (§1)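 IA-DTB competitive cysteine chemoproteomics in HEK293T RIPA lysate. Lysates were treated with compound 29 or 30 at 50 or 200 µM for 4 h, then IA-DTB (500 µM, 1 h), trypsin-digested, NeutrAvidin-enriched and analysed by diaPASEF. Competition ratio = intensity DMSO / intensity compound (n=4 treated, n=64 DMSO); binding: mean log2 CR ≥ 1 and p ≤ 0.05 plus QC filters. Target is the cysteine site.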

[2] = molecular target: ATP1A1 C518 (UniProt P05023)
Protocol: as §1

[3] = molecular target: ATP1A1 C663 (UniProt P05023)
Protocol: as §1

[4] = molecular target: ATP1A3 C221 (UniProt P13637)
Protocol: as §1

[5] = molecular target: ATP1A3 C449 (UniProt P13637)
Protocol: as §1

[6] = molecular target: ATP1A3 C49 (UniProt P13637)
Protocol: as §1

[7] = molecular target: ATP1A3 C508 (UniProt P13637)
Protocol: as §1

[8] = molecular target: ATP1B1 C213 (UniProt P05026)
Protocol: as §1

[9] = molecular target: ATP1B3 C250 (UniProt P54709)
Protocol: as §1

Row | SMILES | log2 mean competition ratio ([1]; 50 µM) | log2 mean competition ratio ([1]; 200 µM) | log2 mean competition ratio ([2]; 50 µM) | log2 mean competition ratio ([2]; 200 µM) | log2 mean competition ratio ([3]; 50 µM) | log2 mean competition ratio ([3]; 200 µM) | log2 mean competition ratio ([4]; 50 µM) | log2 mean competition ratio ([4]; 200 µM) | log2 mean competition ratio ([5]; 50 µM) | log2 mean competition ratio ([5]; 200 µM) | log2 mean competition ratio ([6]; 50 µM) | log2 mean competition ratio ([6]; 200 µM) | log2 mean competition ratio ([7]; 50 µM) | log2 mean competition ratio ([7]; 200 µM) | log2 mean competition ratio ([8]; 50 µM) | log2 mean competition ratio ([8]; 200 µM) | log2 mean competition ratio ([9]; 50 µM) | log2 mean competition ratio ([9]; 200 µM)
1 | O=C(CCl)N[C@H]1CCCc2ccccc21 | -0.0561 | 0.0751 | 0.303 | -0.152 | 0.268 | -0.328 | -0.727 | -0.198 | -0.0698 | 0.0901 | -0.0887 | -0.0405 | 0.407 | 0.0186 | 0.425 | 0.0283 | -0.176 | 0.225
2 | O=C(CCl)N[C@@H]1CCCc2ccccc21 | -0.229 | 0.0137 | -0.0286 | 0.0601 | 0.0763 | -0.435 | -0.467 | -0.141 | -0.214 | -0.0264 | 0.343 | 0.0822 | 0.256 | -0.191 | -0.304 | -0.154 | -0.188 | 0.13
